A: 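Whole-cell growth test on Mycobacterium tuberculosis, read after 4 days in a medium based on cholesterol and the lipid DPPC; the read-out is not stated. Compounds at 50 µM. Higher reads as more growth inhibition (inferred: compounds with an IC50 in retests scored well above the rest). Of about 69,000 compounds tested this way, about 370 (0.54%) reached 50% or more in at least one test.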
B: 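Growth of Mycobacterium tuberculosis over 3 days (7H9 medium with glucose and tyloxapol); the read-out is not stated. Tested at 50 µM. Higher reads as more growth inhibition (inferred: compounds with an IC50 in retests scored well above the rest). About 69,000 compounds were tested under these conditions; 1.1% (about 760) showed 50% or more at least once.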

Values are the deposited “Percent Effect”, in %.
How 0% and 100% were set is not recorded. Most values in the screen are low, and negative values occur.
Compounds were drawn at random from those tested, without regard to their results.
Two or more numbers in one place are separate tests of the same structure; such repeats can differ widely.

structure,A,B
COCCN1CCN(Cc2cccc(C(=O)N(C)C)c2)CC1,19.03%,20.75%
Cc1cc(C(=O)N2CCCC(c3nc(C)no3)C2)on1 (centres unmarked),-10.17%,9.009% & -9.437%
CCN(CC1CC1)C(=O)NCc1nnc2n1CCC2,8.946% & -7.674%,13.96%
NC(=O)Nc1cccc(C(=O)N(Cc2ccncc2)C2CC2)c1,-17.75%,4.767%
CC(C)COCCNC(=O)NC1CCCN(c2cnn(C)c2)C1 (centres unmarked),-7.738% & -9.193%,-9.9%
Cc1cnc(NCC(C)(C)N2CCN(C)CC2)nc1,-1.445%,-24.61% & -7.401%
Cn1cnc(-c2nc(C(=O)NCC3CCCO3)c3ccccn23)c1 (centres unmarked),-19.13%,-11.69%
OCC(O)CSCc1cn(-c2ccc(F)c(Cl)c2)nn1 (centres unmarked),-0.505%,0.2543%
CCOCCOC(C)C(=O)Nc1ccc2c(ccn2CC)c1 (centres unmarked),-11.38%,2.992%
O=C(NCCNc1ncccn1)C1CCCC1,-35.62%,-2.146% & -8.449%
[H][C@@]12CN(C(=O)N(C)C)C[C@]1([H])C(=O)N(C)C21CCN(C(C)=O)CC1,10.11%,-0.6228%
CC(C)c1ncc(CN2CCC(c3n[nH]cc3C(=O)N(C)C)C2)cn1 (centres unmarked),4.949%,-3.629%
CCn1c(CN(C)Cc2csc(C)n2)nc2cc(F)ccc21,7.346%,32.15%
OCCC1CN(c2nc(-c3ccncc3)nc3c2CCNCC3)CCO1 (centres unmarked),-13.82% & -20.91%,-23.18%
CC1CCCN(C(=O)Nc2ccc(F)c(C(N)=O)c2)C1 (centres unmarked),-33.46%,-10.17%
CCc1cc(O)nc(C2CCCN2C(=O)c2cccnc2)n1 (centres unmarked),-24.51%,-24.77%
Cn1cc(NC(=O)NCc2ccoc2)ccc1=O,7.43%,12.34%
O=C(c1ccco1)N(c1ccc(F)cn1)C1CCOCC1,-9.006%,-4.156%
Cc1ccc(CC(=O)NC(C)C(=O)N2CCS(=O)(=O)CC2)s1 (centres unmarked),3.93%,-12.17% & 9.191%
Cc1nc(CCCN2CCOCC2)n(Cc2ccc(F)cc2)n1,1.849%,4.978% & -0.7592%
Cc1ccc(NC(=O)NCCn2cnc(C)c(C)c2=O)cc1F,-8.827%,-5.8%
CNC(=O)c1cc2c(nc1NCC(C)C)CCN(CC1CC1)CC2.O=C(O)C(F)(F)F.O=C(O)C(F)(F)F,1.108% & 2.461%,6.616% & 0.5426%
CC(C)[C@H]1COC(=O)N1Cc1nccn1C(C)C,-4.277%,9.797%
O=C(C1CCC1)N1CCC2(CC1)CNCCO2,-17.81%,-4.932% & -45.69%
CCN(CC1CN(Cc2ccn(C(C)C)n2)CCO1)c1cccnn1 (centres unmarked),-8.096% & -10.51%,-28.35%
O=C(O)C(F)(F)F.O=C(O)C(F)(F)F.O=C1NC2(CCN(Cc3ccoc3)CC2)CC1c1ccncc1 (centres unmarked),-20.24%,-18.36%
Cc1ccc(C(=O)NC(C)CN2CCCC2=O)c(=O)[nH]1 (centres unmarked),-26.06%,-17.74% & -9.61%
N#CCCN(CCC#N)Cc1ccc(Br)c2cccnc12,23.59%,8.72% & 44.09%
CCN(Cc1ccc(F)cc1Cl)C1CCS(=O)(=O)C1 (centres unmarked),0.262%,-0.02928%
CSc1ccc(C(=O)N2CC(=O)N(CC(C)(C)C)CC(O)C2)cc1 (centres unmarked),2.536%,4.634%
O=C1CCC2(CCCN(C(=O)c3ccco3)CC2)N1 (centres unmarked),18.67%,-4.456%
CO[C@H]1CCN(S(=O)(=O)c2cn(C)cn2)[C@H]1Cc1cnn(C)c1.O=C(O)C(F)(F)F,-4.101%,16.12%
Cn1cc(C2CCCN2c2ncnc3[nH]ccc23)cn1 (centres unmarked),-2.422%,-3.236% & -32.62%
COc1c(Cl)cc(Cl)cc1CN1CCC(C(N)=O)C1 (centres unmarked),-11.81%,-4.559% & 78.5%
COCC(=O)N(Cc1cccc(C)c1)Cc1ccccc1OC,-11.22%,-16.73% & 8.539%
O=C(O)C(F)(F)F.O=C(O)C(F)(F)F.[H][C@@]12OCCN(Cc3csc(C)n3)[C@@]1([H])CC[C@@H]2Oc1ccccn1,1.365%,-5.151%
CCN(Cc1ccc(Cl)s1)S(=O)(=O)CC,1.594%,-7.371%
COc1nc2ccccc2cc1CN1CCCC(CNC(C)=O)C1 (centres unmarked),0.4452% & 2.759%,5.083% & 9.226%
Cc1cc(C)n(-c2ccc(N3CCCSCC3)nc2)n1,-3.484%,15.4%
CCN(Cc1ccoc1)C(=O)Nc1ccccc1CN(C)C(C)=O,-18.4%,-33.74% & -10.14%
O=C(Nc1cc(-c2ccccc2)on1)N1CCN(CCO)CC1,-7.073%,18.48%
O=C(Nc1ccnc2ccnn12)c1ccc(N2CCC(O)CC2)cc1,19.39%,11.91%
CC(=O)NCc1ccc(C(=O)Nc2ccc3c(c2)C(=O)NC3)cc1,-21.21%,-19.67%

5 of the entries, repeated:

| structure | A | B |
|---|---|---|
| `O=C(O)C(F)(F)F.O=C(O)C(F)(F)F.[H][C@@]12OCCN(Cc3csc(C)n3)[C@@]1([H])CC[C@@H]2Oc1ccccn1` | 1.365% | -5.151% |
| `Cn1cnc(-c2nc(C(=O)NCC3CCCO3)c3ccccn23)c1` (centres unmarked) | -19.13% | -11.69% |
| `COCC(=O)N(Cc1cccc(C)c1)Cc1ccccc1OC` | -11.22% | -16.73% & 8.539% |
| `CNC(=O)c1cc2c(nc1NCC(C)C)CCN(CC1CC1)CC2.O=C(O)C(F)(F)F.O=C(O)C(F)(F)F` | 1.108% & 2.461% | 6.616% & 0.5426% |
| `Cc1ccc(NC(=O)NCCn2cnc(C)c(C)c2=O)cc1F` | -8.827% | -5.8% |

Measurements from “University of Dundee, Small-Polar-MMV Screening Library” (2021), ChEMBL document CHEMBL3988442.